Measured values: US4271152A (Akzo N.V., priority 1979, dated 1981)
*: point of attachment. Cbz = O=C(OCc1ccccc1)*; Boc = CC(C)(C)OC(=O)*; OtBu = CC(C)(C)O*

assay: general procedure: solution-phase peptide synthesis; DCCI/HOBt; azide method (IAN); ONp active esters; conditions: coupling step, acetate

Compared with Boc-GFMTSE(OtBu)K(Boc)-OMe, H-LVTL-OtBu is higher in step yield: 61% for the first, 77% for the second.

First: H-GFMTSEKSQTPLVTL-OH
Second: H-SQTPLVTL-OtBu
The step yield of the first is higher: 78% for the first, 72% for the second.

Substance Cbz-TSE(OtBu)K(Boc)-OMe has a step yield of 61.9%.

same assay, conditions: late stage modification step, acetate

Going from H-TSE(OtBu)K(Boc)-OMe to Boc-GFMTSE(OtBu)K(Boc)-OH, the step yield falls from 99% to 80%.

First: H-SQTPLVTL-OtBu
Second: Cbz-SQTP-OH
The step yield of the first is lower: 86% for the first, 90% for the second.
